# Assay results from the supplement of paper PMC9135407.
# Several values for one entry are separate records, joined by “and”; a condition that tells them apart may be missing. Equal entries are not always repeated. Structures can show the parent of a compound that is named as a salt. ± gives the standard deviation of the averaged measurements. The list shows a part of the results. Baselines shift from plate to plate; read single values as rough.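 Culture-activated primary human stellate myofibroblasts, where regained lipid droplets signal inactivation. Value: share of Hoechst-counted cells above a per-plate Bodipy cutoff, in duplicate wells, with DMSO negative and nortriptyline positive controls on each plate. Hits: a control-normalized score above the plate's top-tenth-percentile nortriptyline wells, or one of a plate's three best wells. Final well concentrations are not given.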
# Test system: primary human hepatic stellate cells (donor 1)
# Assay: percent Bodipy-positive cells; higher = more lipid droplet accumulation
# Conditions: 48 h
# [1] = library stock concentration: 3.33 mM
# [2] = library stock concentration: 10 mM
# [3] = library stock concentration: 1 mM
smiles,measurement,setting,value
C1=C2CCCN[C@H]2[C@@H]2C[C@H]1[C@H]1CCCCN1C2 [Aloperine],percent Bodipy-positive cells,[1],15.9 ± 5%
same,percent Bodipy-positive cells,[2],33.4 ± 4.4%
CN1CCC(c2c[nH]c3ccc(O)cc23)CC1,percent Bodipy-positive cells,[1],9.29 ± 1.7%
CC(C)[C@@]1(NC(=O)[C@@H]2C[C@@H]3c4cccc5[nH]cc(c45)C[C@H]3N(C)C2)O[C@@]2(O)[C@@H]3CCCN3C(=O)[C@H](Cc3ccccc3)N2C1=O [Dihydroergocristine mesylate],percent Bodipy-positive cells,,49.1 ± 1.9%
same,percent Bodipy-positive cells,[2],46 ± 9.7%
COc1ccc2[nH]c3c(c2c1)CCN=C3C [Methoxy-6-harmalan],percent Bodipy-positive cells,,36.4 ± 4.4%
O=C1C=C2C=C[C@@H]3C[C@@]2(O1)[C@H]1CCCCN31 [Securinine],percent Bodipy-positive cells,,15.7 ± 0.89%
same,percent Bodipy-positive cells,[2],36.9 ± 7.9%
CC(=O)C1=C(O)[C@@H]2[C@H]3c4c[nH]c5cccc(c45)C[C@H]3C(C)(C)N2C1=O [Cyclopiazonic acid],percent Bodipy-positive cells,library stock concentration: 14.9 mM,18.9 ± 1.9%
CC(=O)C1=C(O)[C@@H]2[C@H]3c4c[nH]c5cccc(c45)C[C@H]3C(C)(C)N2C1=O [Cyclopiazonic Acid],percent Bodipy-positive cells,[2],9.24 ± 0.9%
CC(C)=CC1C(C(=O)OCc2cccc(Oc3ccccc3)c2)C1(C)C (configuration not stated) [Phenothrin],percent Bodipy-positive cells,[2],40.7 ± 8.2%
NNCc1ccccc1 [Benzylhydrazine hydrochloride],percent Bodipy-positive cells,[2],16.8 ± 3.3%
NC(=O)c1ccc(OCC(O)CN2CC=C(c3ccc(F)cc3)CC2)cc1 (configuration not stated),percent Bodipy-positive cells,[2],35.3 ± 0.64%
CCOC(=O)CN1C(=O)CC(C[C@@H](O)C2C[C@@H](C)C[C@H](C)C2=O)CC1=O (some centres not stated) [Cycloheximide-N-ethylethanoate],percent Bodipy-positive cells,library stock concentration: 13.6 mM,12.5 ± 3.6%
C[N+](C)(C)CC#CCN1CCCC1=O [Oxotremorine methiodide],percent Bodipy-positive cells,[2],31.6 ± 7.4%
C[N+](C)(C)CC#CCN1CCCC1=O [Oxotremorine M],percent Bodipy-positive cells,[2],7.66 ± 1%
Cc1ncc2n1-c1ccc(Cl)cc1C(c1ccccc1F)=NC2,percent Bodipy-positive cells,[2],11.3 ± 0.93%
CC(C)(C)OC(=O)NC1[C@H]2CNC[C@@H]12 (some centres not stated),percent Bodipy-positive cells,[2],37.7 ± 1.1%
COc1ccc(CNC(=O)/C=C/c2ccc3[nH]cc(CCN(C)C)c3c2)cc1,percent Bodipy-positive cells,[2],56 ± 3.3%
NC(=O)C[S@@+]([O-])C(c1ccccc1)c1ccccc1,percent Bodipy-positive cells,[2],26.7 ± 5.9%
C[CH2][Hg][S]c1ccccc1C(=O)[O-].[Na+] [Thimerosal],percent Bodipy-positive cells,library stock concentration: 4.9 mM,72.2 ± 13%
same,percent Bodipy-positive cells,[2],99.03 ± 0.62%
NC(=O)CN1CC(O)CC1=O (configuration not stated) [Oxiracetam],percent Bodipy-positive cells,[1],9.74 ± 2%
same,percent Bodipy-positive cells,[2],30.1% and 53.9%
COc1ccn(C)c(=O)c1C#N [Ricinine],percent Bodipy-positive cells,,10 ± 4.4%
CCCCC/C=C\C/C=C\C/C=C\C/C=C\CCC(C)C(=O)NCCF (configuration not stated),percent Bodipy-positive cells,[3],14.6 ± 2.6%
CC1=CCCC2C1(C)CCC(C)C2(C)CC/C(C)=C/Cn1c[n+](C)c2c(N)ncnc21 (configuration not stated) [Agelasine (stereochemistry of diterpene unknown)],percent Bodipy-positive cells,[2],59.8 ± 15%
"Cl.Clc1ccc(N2CCN(Cc3c[nH]c4ncccc34)CC2)cc1 [L-745,870 hydrochloride]",percent Bodipy-positive cells,[2],99.26 ± 0.27%
O=C(CCCN1CCC2(CC1)C(=O)NCN2c1ccccc1)c1ccc(F)cc1 [Spiperone],percent Bodipy-positive cells,,33.5 ± 0.94%
same,percent Bodipy-positive cells,library stock concentration: 5.1 mM,33.37 ± 0.22%
same,percent Bodipy-positive cells,[2],25.5 ± 1.3%
CC(C)C[C@H]1C(=O)N2CCC[C@H]2[C@]2(O)O[C@](NC(=O)[C@@H]3C=C4c5cccc6[nH]cc(c56)C[C@H]4N(C)C3)(C(C)C)C(=O)N12 [Ergocryptine-alpha],percent Bodipy-positive cells,,6.61 ± 2.1%
CC(N)C(O)c1ccccc1 (configuration not stated) [Phenylpropanolamine],percent Bodipy-positive cells,library stock concentration: 13.2 mM,5.75 ± 0.61%
CC(N)C(O)c1ccccc1 (configuration not stated) [Phenylpropanolamine hydrochloride],percent Bodipy-positive cells,,26.3 ± 4.3%
same,percent Bodipy-positive cells,library stock concentration: 10.7 mM,4.37 ± 0.29%
COC(=O)N1CCN(C(=O)Cc2ccc(Cl)c(Cl)c2)C(CN2CCCC2)C1.O=C(O)/C=C/C(=O)O (configuration not stated),percent Bodipy-positive cells,[2],88.8 ± 6.5%
COC[C@H]1OC(=O)c2coc3c2[C@@]1(C)C1=C(C3=O)C2CCC(=O)[C@@]2(C)C[C@H]1OC(C)=O (some centres not stated) [Wortmannin from Penicillium funiculosum],percent Bodipy-positive cells,[2],30.4 ± 6.2%
CCCCC1(C2CCCC2)Cc2cc(OCCCC(=O)O)c(Cl)c(Cl)c2C1=O (configuration not stated),percent Bodipy-positive cells,[2],15.2 ± 3.7%
CC(C)Oc1cccnc1N(C)C1CCN(Cc2ccccc2)CC1,percent Bodipy-positive cells,[2],41.7 ± 13%
CCN1C[C@]2(COC)CC[C@H](OC)[C@]34C5C[C@@H]6[C@@H](OC)C[C@@]7(OCO[C@@]7(C13)[C@@H](O)C24)C5[C@H]6OC (some centres not stated) [Delcorine],percent Bodipy-positive cells,,6.74 ± 4.9%
Fc1ccc(C(OCCN2CCN(C/C=C/c3ccccc3)CC2)c2ccc(F)cc2)cc1,percent Bodipy-positive cells,[2],44.4 ± 11%
O=[N+]([O-])O[C@H]1CO[C@H]2[C@@H]1OC[C@H]2O[N+](=O)[O-] [Isosorbide dinitrate],percent Bodipy-positive cells,,9.52 ± 4%
same,percent Bodipy-positive cells,[2],16 ± 7.6%
CCCCCCCCCCCCCCCCOCC(COP(=O)([O-])OCC[N+](C)(C)C)OC(C)=O (stereo not drawn) [Enantio-PAF C16],percent Bodipy-positive cells,[3],4.55 ± 1.6%
CCN1C[C@]2(COC)CC[C@H](O)[C@]34C1[C@@](O)([C@@H](OC)[C@H]23)[C@@]1(O)C[C@H](OC)[C@H]2C[C@@H]4[C@@H]1[C@H]2OC [Delsoline],percent Bodipy-positive cells,,7.314 ± 0.026%
CC[C@@H](C)C(=O)O[C@H]1[C@H](O)[C@H]2[C@@H](CN3C[C@@H](C)CC[C@H]3[C@@]2(C)O)[C@@H]2C[C@]34O[C@]5(O)[C@@H](OC(=O)[C@@](C)(O)CC)CC[C@@]3(C)[C@@H]5[C@@H](OC(C)=O)[C@@H](OC(C)=O)[C@H]4[C@@]21O [Protoveratrine a],percent Bodipy-positive cells,[2],21.2 ± 3%
CC[C@@H](C)C(=O)O[C@H]1[C@H](O)[C@H]2[C@@H](CN3C[C@@H](C)CC[C@H]3[C@@]2(C)O)[C@@H]2C[C@]34O[C@]5(O)[C@@H](OC(=O)[C@@](C)(O)CC)CC[C@@]3(C)[C@@H]5[C@@H](OC(C)=O)[C@@H](OC(C)=O)[C@H]4[C@@]21O [Protoveratrine A],percent Bodipy-positive cells,,18.8 ± 7.1%

# A second format for some results above.
smiles	measurement	setting	value
CC(=O)C1=C(O)[C@@H]2[C@H]3c4c[nH]c5cccc(c45)C[C@H]3C(C)(C)N2C1=O [Cyclopiazonic acid]	percent Bodipy-positive cells	library stock concentration: 14.9 mM	18.9 ± 1.9%
CC(=O)C1=C(O)[C@@H]2[C@H]3c4c[nH]c5cccc(c45)C[C@H]3C(C)(C)N2C1=O [Cyclopiazonic Acid]	percent Bodipy-positive cells	[2]	9.24 ± 0.9%
CC(C)=CC1C(C(=O)OCc2cccc(Oc3ccccc3)c2)C1(C)C (configuration not stated) [Phenothrin]	percent Bodipy-positive cells	[2]	40.7 ± 8.2%
NNCc1ccccc1 [Benzylhydrazine hydrochloride]	percent Bodipy-positive cells	[2]	16.8 ± 3.3%
